Literature values as cited in US11491224B2, “Bladder cancer photodynamic therapeutic agents with off-on magnetic resonance imaging enhancement” (Hong Kong Baptist University, priority 2018, dated 2022).
At least one compound was matched to its structure with a doubt left.

Key:
[1] = in CHCl3, reference value; cited from earlier work
[2] = in anhydrous DCM, reference value; cited from earlier work

## C1=Cc2nc1c(-c1ccccc1)c1nc(c(-c3ccccc3)c3ccc([nH]3)c(-c3ccccc3)c3ccc([nH]3)c2-c2ccccc2)C=C1 [H2TPP, tetraphenylporphyrin]
[1]
  singlet oxygen quantum yield (ΦΔ) of reference: 0.55
[2]
  emission quantum yield of reference (Φem): 0.120
